Data as given in article PMC8436130.
These are yes or no findings as the source states them, for the method shown. In cells and extracts the contact can be indirect. A yes stands for co-enrichment or nearness to the bait. Other partners may have been found.

Chains of the proteins cited; added tags and fusions are not shown.
UniProt Q86WV6: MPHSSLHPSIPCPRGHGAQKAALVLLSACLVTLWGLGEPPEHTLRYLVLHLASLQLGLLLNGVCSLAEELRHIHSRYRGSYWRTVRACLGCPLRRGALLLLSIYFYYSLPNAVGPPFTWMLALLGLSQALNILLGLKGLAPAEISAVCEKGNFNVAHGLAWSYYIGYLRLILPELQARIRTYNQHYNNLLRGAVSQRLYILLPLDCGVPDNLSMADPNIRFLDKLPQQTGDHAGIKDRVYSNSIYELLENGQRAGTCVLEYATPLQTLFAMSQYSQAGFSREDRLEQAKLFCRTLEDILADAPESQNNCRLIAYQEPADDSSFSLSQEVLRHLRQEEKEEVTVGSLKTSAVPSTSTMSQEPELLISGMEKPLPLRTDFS
UniProt Q9UIF9: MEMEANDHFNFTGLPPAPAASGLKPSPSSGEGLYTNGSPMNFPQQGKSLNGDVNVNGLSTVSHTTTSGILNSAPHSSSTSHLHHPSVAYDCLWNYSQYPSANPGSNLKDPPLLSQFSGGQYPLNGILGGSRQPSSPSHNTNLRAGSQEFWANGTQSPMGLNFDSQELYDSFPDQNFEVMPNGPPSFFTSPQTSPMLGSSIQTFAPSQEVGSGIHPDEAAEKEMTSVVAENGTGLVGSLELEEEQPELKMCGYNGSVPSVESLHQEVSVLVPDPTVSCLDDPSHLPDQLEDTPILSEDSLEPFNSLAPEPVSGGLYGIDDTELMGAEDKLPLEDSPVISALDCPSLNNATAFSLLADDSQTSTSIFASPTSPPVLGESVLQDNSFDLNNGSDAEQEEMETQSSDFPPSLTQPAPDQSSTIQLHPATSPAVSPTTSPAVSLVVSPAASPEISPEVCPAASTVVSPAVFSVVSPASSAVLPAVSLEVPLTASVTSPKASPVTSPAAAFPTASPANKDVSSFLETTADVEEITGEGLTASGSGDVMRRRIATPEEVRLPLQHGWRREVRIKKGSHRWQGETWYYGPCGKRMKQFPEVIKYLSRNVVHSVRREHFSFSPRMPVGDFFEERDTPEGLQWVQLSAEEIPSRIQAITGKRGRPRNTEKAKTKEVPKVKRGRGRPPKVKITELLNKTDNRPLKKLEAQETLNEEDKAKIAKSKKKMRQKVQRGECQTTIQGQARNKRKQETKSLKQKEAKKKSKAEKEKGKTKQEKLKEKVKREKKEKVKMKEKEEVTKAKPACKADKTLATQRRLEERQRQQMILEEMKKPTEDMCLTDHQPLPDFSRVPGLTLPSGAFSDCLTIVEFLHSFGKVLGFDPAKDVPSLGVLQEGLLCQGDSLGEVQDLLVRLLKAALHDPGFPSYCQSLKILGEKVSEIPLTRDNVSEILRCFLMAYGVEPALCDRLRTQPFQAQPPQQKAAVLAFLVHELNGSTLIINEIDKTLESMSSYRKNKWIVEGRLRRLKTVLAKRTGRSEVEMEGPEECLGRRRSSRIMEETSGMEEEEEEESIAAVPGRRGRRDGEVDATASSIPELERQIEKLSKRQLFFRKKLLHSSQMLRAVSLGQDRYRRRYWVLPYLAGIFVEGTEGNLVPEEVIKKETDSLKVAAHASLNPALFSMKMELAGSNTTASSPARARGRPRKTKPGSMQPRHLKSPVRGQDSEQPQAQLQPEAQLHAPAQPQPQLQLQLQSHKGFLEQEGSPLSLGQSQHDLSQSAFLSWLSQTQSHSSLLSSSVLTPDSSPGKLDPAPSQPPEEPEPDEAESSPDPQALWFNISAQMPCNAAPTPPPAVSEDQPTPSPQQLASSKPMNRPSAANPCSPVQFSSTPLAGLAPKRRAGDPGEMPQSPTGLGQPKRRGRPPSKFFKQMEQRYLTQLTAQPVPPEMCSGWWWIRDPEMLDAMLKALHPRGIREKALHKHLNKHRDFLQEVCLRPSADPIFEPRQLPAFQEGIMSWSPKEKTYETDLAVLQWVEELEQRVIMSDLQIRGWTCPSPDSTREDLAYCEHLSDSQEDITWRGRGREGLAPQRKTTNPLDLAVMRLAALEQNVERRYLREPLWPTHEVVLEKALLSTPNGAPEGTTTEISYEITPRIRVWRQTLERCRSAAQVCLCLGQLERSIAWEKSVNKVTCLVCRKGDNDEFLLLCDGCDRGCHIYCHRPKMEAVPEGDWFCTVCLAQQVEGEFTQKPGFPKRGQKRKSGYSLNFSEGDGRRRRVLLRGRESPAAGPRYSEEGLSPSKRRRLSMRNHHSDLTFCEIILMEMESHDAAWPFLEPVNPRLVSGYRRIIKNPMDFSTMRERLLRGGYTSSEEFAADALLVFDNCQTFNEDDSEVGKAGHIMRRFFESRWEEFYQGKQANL
UniProt P78347: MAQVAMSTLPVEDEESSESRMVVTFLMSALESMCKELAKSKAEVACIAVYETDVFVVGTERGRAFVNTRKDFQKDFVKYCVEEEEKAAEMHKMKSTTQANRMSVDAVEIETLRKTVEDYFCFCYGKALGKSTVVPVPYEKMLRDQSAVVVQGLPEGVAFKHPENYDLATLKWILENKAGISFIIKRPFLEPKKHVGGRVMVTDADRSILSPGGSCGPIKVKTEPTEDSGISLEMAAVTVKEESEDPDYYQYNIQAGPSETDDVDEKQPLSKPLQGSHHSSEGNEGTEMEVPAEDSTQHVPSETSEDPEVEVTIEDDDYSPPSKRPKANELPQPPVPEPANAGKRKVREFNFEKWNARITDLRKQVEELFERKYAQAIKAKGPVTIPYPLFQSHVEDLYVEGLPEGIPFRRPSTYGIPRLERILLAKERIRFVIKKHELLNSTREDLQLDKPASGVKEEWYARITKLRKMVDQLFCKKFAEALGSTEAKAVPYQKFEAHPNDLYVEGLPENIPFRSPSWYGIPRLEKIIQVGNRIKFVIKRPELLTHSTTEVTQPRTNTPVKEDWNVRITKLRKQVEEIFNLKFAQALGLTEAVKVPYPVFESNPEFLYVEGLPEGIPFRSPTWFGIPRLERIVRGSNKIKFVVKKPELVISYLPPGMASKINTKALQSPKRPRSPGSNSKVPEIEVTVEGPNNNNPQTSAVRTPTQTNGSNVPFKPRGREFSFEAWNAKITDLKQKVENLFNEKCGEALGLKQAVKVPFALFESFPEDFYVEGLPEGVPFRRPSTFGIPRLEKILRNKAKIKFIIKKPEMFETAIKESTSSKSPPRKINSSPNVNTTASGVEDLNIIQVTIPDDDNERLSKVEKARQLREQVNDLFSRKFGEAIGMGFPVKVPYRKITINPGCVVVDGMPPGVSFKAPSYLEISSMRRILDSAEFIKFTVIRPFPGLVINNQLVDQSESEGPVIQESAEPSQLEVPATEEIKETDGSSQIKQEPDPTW
UniProt Q7Z4V5: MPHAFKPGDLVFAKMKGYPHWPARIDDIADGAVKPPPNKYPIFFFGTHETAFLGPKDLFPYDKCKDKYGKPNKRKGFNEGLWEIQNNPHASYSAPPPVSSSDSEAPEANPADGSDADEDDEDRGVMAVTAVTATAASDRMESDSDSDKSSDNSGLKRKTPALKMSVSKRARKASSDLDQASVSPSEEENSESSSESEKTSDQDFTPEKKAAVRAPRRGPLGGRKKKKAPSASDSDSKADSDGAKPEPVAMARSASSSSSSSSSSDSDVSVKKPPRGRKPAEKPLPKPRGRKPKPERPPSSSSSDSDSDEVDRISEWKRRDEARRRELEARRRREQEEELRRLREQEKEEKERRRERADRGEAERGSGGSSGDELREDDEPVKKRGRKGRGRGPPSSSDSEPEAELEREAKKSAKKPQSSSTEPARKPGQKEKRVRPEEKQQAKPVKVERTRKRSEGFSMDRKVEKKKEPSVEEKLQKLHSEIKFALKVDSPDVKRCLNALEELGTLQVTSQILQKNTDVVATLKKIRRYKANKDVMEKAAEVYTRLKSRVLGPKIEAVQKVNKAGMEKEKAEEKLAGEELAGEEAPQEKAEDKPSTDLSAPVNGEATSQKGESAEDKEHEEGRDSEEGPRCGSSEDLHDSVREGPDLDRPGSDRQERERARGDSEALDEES
UniProt P38159: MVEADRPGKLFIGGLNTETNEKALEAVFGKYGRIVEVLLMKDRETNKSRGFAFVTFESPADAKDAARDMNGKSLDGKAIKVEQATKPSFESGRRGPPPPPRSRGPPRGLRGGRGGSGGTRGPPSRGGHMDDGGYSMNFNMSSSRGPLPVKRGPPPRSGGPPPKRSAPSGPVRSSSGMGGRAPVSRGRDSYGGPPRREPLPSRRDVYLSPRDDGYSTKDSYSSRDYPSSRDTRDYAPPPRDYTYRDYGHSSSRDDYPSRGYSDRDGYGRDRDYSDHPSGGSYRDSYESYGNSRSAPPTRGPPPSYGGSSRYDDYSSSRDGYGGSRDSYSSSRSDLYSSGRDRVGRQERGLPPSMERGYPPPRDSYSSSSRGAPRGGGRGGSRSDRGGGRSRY
UniProt O00255: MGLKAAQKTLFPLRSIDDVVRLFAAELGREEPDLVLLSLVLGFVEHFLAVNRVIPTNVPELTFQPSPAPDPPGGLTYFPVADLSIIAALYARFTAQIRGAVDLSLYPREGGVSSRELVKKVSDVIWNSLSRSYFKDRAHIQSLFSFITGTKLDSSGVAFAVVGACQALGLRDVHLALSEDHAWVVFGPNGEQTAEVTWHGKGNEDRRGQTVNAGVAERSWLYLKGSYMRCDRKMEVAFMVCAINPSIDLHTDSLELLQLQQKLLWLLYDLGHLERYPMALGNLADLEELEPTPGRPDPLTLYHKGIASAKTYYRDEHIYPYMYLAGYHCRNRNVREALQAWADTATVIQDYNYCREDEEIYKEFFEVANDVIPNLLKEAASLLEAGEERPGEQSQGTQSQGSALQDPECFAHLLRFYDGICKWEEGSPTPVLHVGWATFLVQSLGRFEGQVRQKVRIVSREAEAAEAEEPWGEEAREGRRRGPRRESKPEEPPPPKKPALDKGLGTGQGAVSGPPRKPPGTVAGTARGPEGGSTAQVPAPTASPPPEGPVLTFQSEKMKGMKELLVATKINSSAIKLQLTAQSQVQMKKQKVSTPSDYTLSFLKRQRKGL
UniProt Q96E39: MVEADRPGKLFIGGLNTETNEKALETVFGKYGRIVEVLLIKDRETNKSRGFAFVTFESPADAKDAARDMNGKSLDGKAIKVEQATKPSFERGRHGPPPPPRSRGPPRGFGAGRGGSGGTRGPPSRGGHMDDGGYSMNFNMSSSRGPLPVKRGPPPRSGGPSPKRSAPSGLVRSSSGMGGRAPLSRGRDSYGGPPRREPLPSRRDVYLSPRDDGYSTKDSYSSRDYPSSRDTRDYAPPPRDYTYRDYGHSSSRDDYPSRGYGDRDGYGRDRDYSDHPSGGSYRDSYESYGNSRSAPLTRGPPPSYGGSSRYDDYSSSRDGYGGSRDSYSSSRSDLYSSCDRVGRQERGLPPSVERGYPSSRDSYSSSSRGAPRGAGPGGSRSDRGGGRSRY
UniProt O14776: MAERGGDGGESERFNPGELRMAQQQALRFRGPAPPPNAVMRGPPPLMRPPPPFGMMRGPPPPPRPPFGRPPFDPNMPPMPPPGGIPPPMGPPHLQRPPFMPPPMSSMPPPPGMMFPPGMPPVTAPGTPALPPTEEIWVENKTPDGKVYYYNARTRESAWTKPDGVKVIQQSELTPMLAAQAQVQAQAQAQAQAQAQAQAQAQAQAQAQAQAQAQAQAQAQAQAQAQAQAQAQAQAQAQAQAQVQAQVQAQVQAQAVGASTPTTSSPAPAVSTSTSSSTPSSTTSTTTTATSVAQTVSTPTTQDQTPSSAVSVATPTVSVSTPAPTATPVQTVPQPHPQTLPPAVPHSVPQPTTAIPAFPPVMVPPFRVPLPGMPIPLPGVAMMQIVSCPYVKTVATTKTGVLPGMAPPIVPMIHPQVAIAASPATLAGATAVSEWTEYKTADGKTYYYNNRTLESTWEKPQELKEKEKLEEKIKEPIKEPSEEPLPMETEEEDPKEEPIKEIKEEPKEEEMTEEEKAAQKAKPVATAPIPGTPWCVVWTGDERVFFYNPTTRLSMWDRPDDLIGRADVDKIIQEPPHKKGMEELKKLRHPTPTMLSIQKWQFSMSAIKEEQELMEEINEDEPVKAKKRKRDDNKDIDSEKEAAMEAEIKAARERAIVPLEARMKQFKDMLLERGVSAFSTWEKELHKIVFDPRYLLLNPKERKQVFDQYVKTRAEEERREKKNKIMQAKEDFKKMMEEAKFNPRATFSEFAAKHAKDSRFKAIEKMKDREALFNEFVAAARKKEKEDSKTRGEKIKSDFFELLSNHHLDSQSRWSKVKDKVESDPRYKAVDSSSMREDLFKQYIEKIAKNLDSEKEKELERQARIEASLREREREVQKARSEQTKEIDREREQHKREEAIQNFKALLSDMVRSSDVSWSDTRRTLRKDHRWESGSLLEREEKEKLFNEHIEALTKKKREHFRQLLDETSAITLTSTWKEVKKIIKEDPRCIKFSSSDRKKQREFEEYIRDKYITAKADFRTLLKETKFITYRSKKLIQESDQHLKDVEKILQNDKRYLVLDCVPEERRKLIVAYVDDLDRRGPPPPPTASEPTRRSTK

Target: STimulator of INterferon Genes (STING) fused to GFP (UniProt Q86WV6)
Assay: affinity purification with mass spectrometry; nuclear envelopes isolated from HEK293T cells expressing STING-GFP, reversibly cross-linked with ortho-phenanthroline copper, resuspended in RIPA and sonicated, immunoprecipitated with GFP antibodies on Protein A-sepharose, released with 50 mM DTT, tandem mass spectrometry; mock-transfected cells as control

Substance | binding
BAZ2A (from UniProt Q9UIF9 1-1905) | binds
BRD2 (from UniProt P25440 1-801) | binds
CD11B (from UniProt P21127 1-795) | binds
CKAP4 (from UniProt Q07065 1-602) | binds
DDX5 (from UniProt P17844 1-614) | binds
DDX41 (from UniProt Q9UJV9 1-622) | binds
GTF2I (from UniProt P78347 1-998) | binds
HDGR2 (from UniProt Q7Z4V5 1-671) | binds
HIST1H1C (from UniProt P16403 1-213) | binds
HIST1H1D (from UniProt P16402 1-221) | binds
HNRNPG (from UniProt P38159 1-391) | binds
HNRNPK (from UniProt P61978 1-463) | binds
HP1B3 (from UniProt Q5SSJ5 1-553) | binds
HSPA1A (from UniProt P0DMV8 1-641) | binds
KIAA0020 (from UniProt Q15397 1-648) | binds
Lamin A (from UniProt P02545 1-646) | binds
MECP2 (from UniProt P51608 1-486) | binds
MEN1 (from UniProt O00255 1-610) | binds
MFAP1 (from UniProt P55081 1-439) | binds
PSIP1 (from UniProt O75475 1-530) | binds
RBMXL1 (from UniProt Q96E39 1-390) | binds
SNRNP70 (from UniProt P08621 1-437) | binds
SYNCRIP/hnRNP Q (from UniProt O60506 1-623) | binds
TCERG1 (from UniProt O14776 1-1098) | binds
major histone K4 methyltransferase, MLL1 (from UniProt Q03164 1-3969) | binds
